Experimental findings from US8735439B2, “Chlorin e6-folic acid conjugate, preparation method thereof, and a pharmaceutical composition for the treatment of cancer comprising the same” (Diatech Korea Co., Ltd., priority 2009, dated 2014) are described below.

In this data set the test system is sarcoma M-1. Briefly: Necrotic area in sarcoma M-1 after PDT. It counts as in vivo, rats. The note with it: PDT 100 J/cm^2 at 4 hours, mean of 25 slides. As to the method: 2 hours later the animals were killed by chloroform, the tumor was excised and fixed for one hour in 10%-HOM formalin. After fixation, transverse sections of the tumor nodule in its highest diameter were made, and pictures were taken by a camera connected to a computer.
For quantitative assessment of necroses formed after PDT, computer analysis of color tints of histo-topographic tumor slides was performed using a special program.
The program included an algorithm of blue color identification (Evans blue), which stained viable areas of the tumor. Tumor areas killed from direct cytotoxic effect or due to structural-functional disorders of microcirculation were not stained in blue. The ratio of all non-stained dots to the total amount of dots in the fence of the tumor slide was considered to be the destruction efficiency.
For this purpose, a laser medical instrument “ ? 680-2000” (BIOSPEC, Moscow) was used to perform the exposure at a wavelength of 670 nm in a dose of 100 J/cm^2. The power density was 0.51 W/cm^2, the output power was 0.4 W, and the spot light diameter was 1 cm. Time of exposure was […]. Monitoring over radiating power was conducted by a universal power meter included in the laser device “ ? 4680-2000”.

On to “[γ-(6-aminohexyl)folic acid]-chlorin e6 [chlorin e6 conjugate]”, for which the “Slide area of sarcoma M-1” value reads like this: (2.5 mg/kg) 2.508 cm^2; (5.0 mg/kg) 2,255 cm^2; (10.0 mg/kg) 1.886 cm^2.
